Experiment [1] deals with T1, Otud3, endogenous mouse (mouse (endogenous in MEF)) (UniProt B1AZ99).
T1 sequence: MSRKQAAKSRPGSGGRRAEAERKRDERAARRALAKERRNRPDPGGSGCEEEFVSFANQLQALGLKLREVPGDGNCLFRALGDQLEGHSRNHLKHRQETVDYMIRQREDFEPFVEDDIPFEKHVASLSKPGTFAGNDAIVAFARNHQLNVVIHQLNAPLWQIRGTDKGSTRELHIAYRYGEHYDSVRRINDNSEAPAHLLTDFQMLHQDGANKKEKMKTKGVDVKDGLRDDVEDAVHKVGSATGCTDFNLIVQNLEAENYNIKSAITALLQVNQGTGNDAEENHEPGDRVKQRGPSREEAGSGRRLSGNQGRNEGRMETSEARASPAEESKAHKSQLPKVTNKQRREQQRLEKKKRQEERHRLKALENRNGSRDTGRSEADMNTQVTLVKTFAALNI
The experiment can be described thus: co-IP; endogenous proteins; cell lysates (NP40 lysis buffer with DNase I, 3 mg total protein) incubated overnight with antibody to PTEN or OTUD3, Protein A/G agarose, western blot.

Chains of the proteins cited; added tags and fusions are not shown.
UniProt O08586: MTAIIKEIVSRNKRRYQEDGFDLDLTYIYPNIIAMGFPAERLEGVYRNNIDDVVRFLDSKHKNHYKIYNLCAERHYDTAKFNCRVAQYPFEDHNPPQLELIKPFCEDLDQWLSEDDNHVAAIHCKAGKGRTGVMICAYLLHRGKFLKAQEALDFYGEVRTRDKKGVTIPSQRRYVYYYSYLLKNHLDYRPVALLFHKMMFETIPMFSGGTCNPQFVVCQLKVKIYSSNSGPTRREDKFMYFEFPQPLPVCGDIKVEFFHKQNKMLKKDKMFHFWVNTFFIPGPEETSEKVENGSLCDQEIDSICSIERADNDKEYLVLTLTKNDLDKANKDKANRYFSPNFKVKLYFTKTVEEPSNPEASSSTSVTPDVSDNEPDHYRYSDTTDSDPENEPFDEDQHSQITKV
UniProt Q01320: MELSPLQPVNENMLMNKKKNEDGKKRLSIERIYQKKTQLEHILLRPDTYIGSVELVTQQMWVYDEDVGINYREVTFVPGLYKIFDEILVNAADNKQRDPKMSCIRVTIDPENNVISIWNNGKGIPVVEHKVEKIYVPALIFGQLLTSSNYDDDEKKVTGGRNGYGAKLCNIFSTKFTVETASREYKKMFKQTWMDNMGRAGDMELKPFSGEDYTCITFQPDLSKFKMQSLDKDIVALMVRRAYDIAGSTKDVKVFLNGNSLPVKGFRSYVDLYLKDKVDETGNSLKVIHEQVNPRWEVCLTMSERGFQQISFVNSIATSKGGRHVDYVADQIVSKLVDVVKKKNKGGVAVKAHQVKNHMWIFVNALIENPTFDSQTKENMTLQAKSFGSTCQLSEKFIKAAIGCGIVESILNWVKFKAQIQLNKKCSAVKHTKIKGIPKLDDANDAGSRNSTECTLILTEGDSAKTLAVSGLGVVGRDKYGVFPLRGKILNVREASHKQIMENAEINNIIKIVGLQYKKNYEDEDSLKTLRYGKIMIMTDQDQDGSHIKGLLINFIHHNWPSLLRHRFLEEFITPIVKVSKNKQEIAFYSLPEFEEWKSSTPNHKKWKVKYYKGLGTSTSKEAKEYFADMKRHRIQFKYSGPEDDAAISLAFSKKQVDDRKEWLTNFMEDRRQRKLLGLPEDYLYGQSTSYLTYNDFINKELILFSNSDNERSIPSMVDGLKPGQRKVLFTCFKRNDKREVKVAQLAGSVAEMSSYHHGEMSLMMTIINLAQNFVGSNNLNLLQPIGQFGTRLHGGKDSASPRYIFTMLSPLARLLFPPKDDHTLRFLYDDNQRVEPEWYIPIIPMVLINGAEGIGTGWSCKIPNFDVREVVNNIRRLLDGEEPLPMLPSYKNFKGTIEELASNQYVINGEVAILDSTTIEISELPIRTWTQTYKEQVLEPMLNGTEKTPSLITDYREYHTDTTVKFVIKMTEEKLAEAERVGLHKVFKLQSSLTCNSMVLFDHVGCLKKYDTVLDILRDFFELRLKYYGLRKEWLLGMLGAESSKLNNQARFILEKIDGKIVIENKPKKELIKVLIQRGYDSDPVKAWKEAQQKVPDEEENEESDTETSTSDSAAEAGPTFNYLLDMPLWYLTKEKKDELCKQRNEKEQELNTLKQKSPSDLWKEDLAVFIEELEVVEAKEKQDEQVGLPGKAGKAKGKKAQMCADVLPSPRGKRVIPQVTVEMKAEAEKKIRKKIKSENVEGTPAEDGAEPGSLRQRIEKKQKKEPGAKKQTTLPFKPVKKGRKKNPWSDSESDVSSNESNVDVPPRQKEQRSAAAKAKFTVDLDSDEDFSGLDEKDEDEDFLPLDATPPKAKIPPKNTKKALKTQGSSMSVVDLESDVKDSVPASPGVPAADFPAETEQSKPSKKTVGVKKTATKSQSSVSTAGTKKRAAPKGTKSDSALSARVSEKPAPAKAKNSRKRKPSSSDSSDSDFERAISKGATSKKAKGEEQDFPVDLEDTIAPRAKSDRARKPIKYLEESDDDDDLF

In experiment [2] the target is Pten, endogenous mouse (mouse (endogenous in MEF)) (UniProt O08586). Described as above.

No constants are given. Whether binding was seen depends on the method and setting. In cells and extracts the contact can be indirect. Some entries that bind do so weakly or less than the wild type.

For the substance “Top2a, endogenous mouse (from UniProt Q01320 1-1528)”, the binding entry in experiment [1] and in experiment [2] was “binds” throughout.

These data come from article PMC4674714.
